# According to PubChem BioAssay AID1671190 (National Center for Advancing Translational Sciences (NCATS), 2021):
# Amino acid sequences for entries named in this document (tags omitted).
# UniProt P18054, whole entry, looked up: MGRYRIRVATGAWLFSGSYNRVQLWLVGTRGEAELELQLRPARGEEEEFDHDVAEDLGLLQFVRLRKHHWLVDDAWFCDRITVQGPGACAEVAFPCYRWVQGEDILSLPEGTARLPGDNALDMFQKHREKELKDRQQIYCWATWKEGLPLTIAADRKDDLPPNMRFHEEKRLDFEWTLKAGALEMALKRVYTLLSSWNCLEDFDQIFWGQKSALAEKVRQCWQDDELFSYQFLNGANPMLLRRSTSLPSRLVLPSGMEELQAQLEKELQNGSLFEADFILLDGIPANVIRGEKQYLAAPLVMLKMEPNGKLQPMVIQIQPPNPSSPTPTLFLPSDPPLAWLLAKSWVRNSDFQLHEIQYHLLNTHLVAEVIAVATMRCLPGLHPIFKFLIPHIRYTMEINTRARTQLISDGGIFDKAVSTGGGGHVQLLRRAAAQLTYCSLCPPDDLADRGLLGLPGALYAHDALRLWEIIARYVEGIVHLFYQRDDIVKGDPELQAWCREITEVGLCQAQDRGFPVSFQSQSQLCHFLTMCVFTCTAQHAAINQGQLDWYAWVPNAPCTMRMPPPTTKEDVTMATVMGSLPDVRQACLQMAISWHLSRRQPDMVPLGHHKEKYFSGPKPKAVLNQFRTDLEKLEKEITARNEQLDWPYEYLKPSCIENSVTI
# Screen size: about 580,000 compounds; about 6,100 (1.1%) were called active. Inconclusive results, whose numbers are uncertain, are shown with a selection of clear calls. The call rests on the fitted dose curve; in most records, active means well fitted inhibition curve with a large enough effect; inconclusive means small, poorly fitted or top-dose-only effect, or another doubt; inactive means no such curve, though single readings can be large or run the other way. Potencies of inconclusive entries are doubtful fits and often do not repeat.
# Molecular target: Polyunsaturated fatty acid lipoxygenase ALOX12 (Homo sapiens) (UniProt P18054)
# Test: Primary qHTS assay for inhibitors of human arachidonate 12S-lipoxygenase (ALOX12): Round 2
# Conditions: purified 12hLO, xylenol orange hydroperoxide absorbance; activity change, negative = inhibition: at 108 µM (top of the series) unless noted
# Outline: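 Purified human 12hLO at 150 nM in 25 mM Hepes, 0.01% Triton X-100, pH 7.0, preincubated 15 min at room temperature with compound. Reaction started with 40 uM arachidonic acid, 30 min at room temperature. Hydroperoxide measured by Fe-xylenol orange, 573/405 nm absorbance ratio.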
# On the % scale 0 is the no-effect control and ±100 the full control effect; potency means the concentration at half of the fitted maximal effect.
Structure (SMILES),Potency,"activity change, negative = inhibition"
CN(C(=O)c1cccc(NC(=O)Cc2cccc([N+](=O)[O-])c2)c1)C1CCC1,"inconclusive: 79.4 µM [inhibitor, partial curve, poor fit]",
c1csc(-c2nc3nc4ccccc4nc3n2Cc2ccc3c(c2)OCO3)c1,inactive,
NC(=O)c1cccc(-c2ccnc3c2CC(C(=O)Nc2cccc(C(F)(F)F)c2)O3)c1 (configuration not stated),"inconclusive: 50.1 µM [inhibitor, partial curve, poor fit]",
O=C(CCc1nc2sc3c(c2c(=O)[nH]1)CCCC3)NCCOc1ccccc1,"inconclusive: 0.282 µM [inhibitor, full curve, poor fit]",
COc1cccc(CNC(=O)c2ccc(S(=O)(=O)N3CCc4ccccc4C3)cc2)c1,inactive,
COc1ccc(N2CC3CCC(C2)N3CC2CCCC2)cc1,"inconclusive: 10 µM [inhibitor, full curve]",
COc1ccc(-n2nc(C3CCCN(C(=O)C4CC4)C3)[nH]c2=O)cc1 (configuration not stated),active: 17.8 µM,
CCOC(=O)C1(Cc2cccc(Cl)c2)CCCN(CCO)C1 (configuration not stated),"inconclusive: 100 µM [inhibitor, single point]",
Cc1noc(NS(=O)(=O)c2ccc(NC(=O)CSc3nc4c(cc3C#N)CCCC4)cc2)c1C,inactive,
CNc1nc(-c2ccccc2)[n+](-c2ccc(C)cc2)s1,active: 7.08 µM,
O=C(c1cc(-c2cccs2)[nH]n1)N1CCN(c2ccccn2)CC1,inactive,
CCOC(=O)c1sc2ccccc2c1S(=O)(=O)Nc1ccc(OC)c(Cl)c1,"inconclusive: 50.1 µM [inhibitor, partial curve, poor fit]",
CCCC(=O)Nc1sc(C)c(C)c1C#N,inactive,
O=[N+]([O-])c1ccc(Nc2nc(N/N=C/c3cccc(F)c3)nc(N3CCCC3)n2)cc1,"inconclusive: 112 µM [inhibitor, partial curve, poor fit]",
COc1ccccc1C1CC(c2ccc(NS(C)(=O)=O)cc2)=NN1C(=O)c1ccccc1 (configuration not stated),inactive,
CC1=C(C(=O)N(C)C)CC(CC(=O)NC(c2ccccc2)c2ccccc2)C(=O)N1CCC1=CCCCC1 (configuration not stated),"inconclusive: 31.6 µM [inhibitor, partial curve]",
O=S(=O)(Nc1ccccn1)c1ccc(Oc2ccccc2)cc1,"inconclusive: 56.2 µM [inhibitor, partial curve, poor fit]",
Cc1cc(C)cc(NS(=O)(=O)c2ccc3c(c2)-c2oncc2CO3)c1,"inconclusive: 39.8 µM [inhibitor, partial curve, poor fit]",
Cc1ccc(/C=N/n2c(COc3ccccc3)n[nH]c2=S)o1,"inconclusive: 50.1 µM [inhibitor, partial curve, poor fit]",
Cc1ccc(-c2cc3cccc[n+]3cc2-c2ccc(C)cc2)cc1,inactive,
O=C(O)c1ccc(Cn2cc(/C=C\[N+](=O)[O-])c3ccccc32)o1,"inconclusive: 44.7 µM [inhibitor, partial curve, poor fit]",
CN(C)C(=O)c1ccnc(-c2nnc3ccc(NCCc4ccccc4)nn23)c1,"inconclusive: 70.8 µM [inhibitor, partial curve, poor fit]",
CCOC(=O)C1=C(c2ccccc2)N=C2SCC(=O)N2C1c1ccc(O)c(OC)c1 (configuration not stated),inactive,

Structure (SMILES),Potency,"activity change, negative = inhibition"
COc1ccccc1Nc1nnc(-c2cc3cccc(OC)c3oc2=O)s1,inactive,
Cn1/c(=N/N=C/c2ccccn2)sc2ccccc21,inactive,
CCn1c(C)c(C(C)=O)c2cc(OCC(O)CN3CCN(CCO)CC3)ccc21 (configuration not stated),inactive,
Cc1ccc(C(CCNC(C)c2cccs2)c2ccco2)cc1 (configuration not stated),"inconclusive: 112 µM [inhibitor, single point]",
CS(=O)(=O)Oc1ccc(Br)cc1/C=C1/N=C(c2ccco2)OC1=O,"inconclusive: 79.4 µM [inhibitor, partial curve, poor fit]",
CCN(C(=O)c1sc(N)c(C#N)c1C)C1CCCCC1,"inconclusive: 141 µM [inhibitor, partial curve, poor fit]",
Cc1sc2nc(-c3cccnc3)[nH]c(=O)c2c1-c1ccccc1,"inconclusive: 50.1 µM [inhibitor, partial curve]",
O=c1c2ccccc2nc(/C=C/c2cccc([N+](=O)[O-])c2)n1CCCO,inactive,
COc1ccc(C(=O)NCCSc2c[nH]c3ccccc23)cc1OC,"inconclusive: 50.1 µM [inhibitor, partial curve, poor fit]",
CCCc1ccc(OCc2nc(-c3ccc(NC(=O)c4ccco4)cc3)no2)cc1,inactive,
CCN(CC)C(=O)c1[nH]cnc1C(=O)N[C@@H](CC(C)C)C(=O)OC(C)(C)C,"inconclusive: 28.2 µM [inhibitor, single point]",
CCCCCC(=O)NC(N1CCCCC1)C(Cl)(Cl)Cl (configuration not stated),"inconclusive: 44.7 µM [inhibitor, partial curve, poor fit]",
COC(=O)CN1C(=O)CSc2ccc(S(=O)(=O)Nc3ccc(F)c(Cl)c3)cc21,,inconclusive: -33.9% [inhibitor]
O=C(Nc1ccc(O)c2c(=O)cc(-c3ccccc3Cl)oc12)c1ccccc1Cl,inactive,
CN(C)c1ccc(C=NNC(=S)Nc2ccc(F)cc2)cc1,"inconclusive: 70.8 µM [inhibitor, partial curve, poor fit]",
Cc1ccc(-c2coc3cc4oc(=O)cc(-c5ccccc5)c4cc23)cc1,"inconclusive: 39.8 µM [inhibitor, partial curve, poor fit]",
N#CCCn1cc(C(=O)CN2C(=O)C(=O)N(C3CCCC3)C2=O)c2ccccc21,"inconclusive: 0.562 µM [inhibitor, full curve, poor fit]",
CCOc1ccc2c(=O)c(Oc3cccc(OC)c3)c(C)oc2c1,"inconclusive: 35.5 µM [inhibitor, partial curve, poor fit]",
COCC1CN(C(=O)CCc2c(C)nn(C)c2C)CC12CCNCC2 (configuration not stated),"inconclusive: 3.98 µM [inhibitor, partial curve, poor fit]",
CN1CCN(C(CNC(=O)c2ccc(F)cc2)c2ccc3c(c2)OCO3)CC1 (configuration not stated),inactive,
Cc1ccc(F)c(S(=O)(=O)NC(=O)C2(C)CCN2C(=O)c2ccc(C(F)(F)F)nc2C)c1 (configuration not stated),"inconclusive: 112 µM [inhibitor, single point]",
C=CCn1c(SCc2ccccc2Cl)nc2c1c(=O)n(C)c(=O)n2C,"inconclusive: 39.8 µM [inhibitor, partial curve, poor fit]",
O=C(Oc1ccc(C(=S)N2CCOCC2)cc1)c1cccc(Cl)c1,inactive,

Structure (SMILES),Potency,"activity change, negative = inhibition"
Cc1cc(C(=O)OCCN2C(=O)c3ccccc3C2=O)c2ccccc2n1,inactive,
CCCCC(O)(c1ccc(F)cc1)C(CN1CCOCC1)c1ccc(Cl)cc1 (configuration not stated),"inconclusive: 112 µM [inhibitor, single point]",
Cc1ccccc1-c1n[nH]c(=S)o1,"inconclusive: 79.4 µM [inhibitor, partial curve, poor fit]",
O=c1cc(CN2CCCCC2)c2ccccc2o1,"inconclusive: 39.8 µM [inhibitor, partial curve, poor fit]",
CCc1ccc(OCc2ccc(C(=O)NCc3ccccn3)o2)cc1,inactive,
CC1(c2ccccc2)N(Cc2ccccc2)C(=O)OC12CCN(C(=O)C1CCOCC1)CC2 (configuration not stated),,inconclusive: -32% [inhibitor]
Cc1cccc(C(=O)NCc2nnc(SCC(=O)NC3=NCCS3)n2C)c1,"inconclusive: 39.8 µM [inhibitor, partial curve, poor fit]",
COc1ccc(OC)c(CNC(=O)c2c(C)oc3ncn(CC(C)C)c(=O)c23)c1,,inconclusive: -34.5% [inhibitor]
Cc1cc(NC2CCCCC2)nc(-c2ccccc2O)n1,"inconclusive: 3.16 µM [inhibitor, full curve, poor fit]",
O=C(NCCc1nnc2n1CCCCC2)Nc1ccccc1F,inactive,
C[C@H](CO)N1C[C@H](C)[C@@H](CN(C)Cc2ccc(Oc3ccccc3)cc2)Oc2c(NC(=O)C3CC3)cccc2C1=O,"inconclusive: 2.24 µM [inhibitor, single point]",
COc1ccc(-c2nsc(SCC(=O)NCC3CCCO3)n2)cc1 (configuration not stated),"inconclusive: 44.7 µM [inhibitor, partial curve, poor fit]",
Cc1ccc(OCC(=O)NNC(=O)CCc2ccccc2)cc1,inactive,
O=C(CSc1ncccc1C(=O)O)NCc1ccc(F)cc1,"inconclusive: 44.7 µM [inhibitor, partial curve, poor fit]",
O=C(O)c1cc(-c2ccc(/C=C3\NC(=O)N(c4ccccc4)C3=O)o2)ccc1Cl,"inconclusive: 22.4 µM [inhibitor, partial curve, poor fit]",
CCOC(=O)c1cc2c(C)n(-c3ccc(C)cc3)c(C)c2ccc1=O,"inconclusive: 79.4 µM [inhibitor, partial curve, poor fit]",
Cc1cc(C)n(-c2cc(N3CCN(C(=O)c4ccccc4C)CC3)ccc2[N+](=O)[O-])n1,"inconclusive: 25.1 µM [inhibitor, partial curve, poor fit]",
CCNC(=O)C(C)Sc1nnc(-c2cccs2)n1C1CC1 (configuration not stated),inactive,
COc1ccc2cccc(N3CCN(CCNC(=O)c4ccc(F)cc4)CC3)c2c1,"inconclusive: 14.1 µM [inhibitor, partial curve, poor fit]",
CCCCCn1c(SC(C)C(C)=O)nc2c1c(=O)[nH]c(=O)n2C (configuration not stated),"inconclusive: 126 µM [inhibitor, single point]",
Cc1cc(C)cc(NC(=O)Cc2csc(COc3cccc(C)c3)n2)c1,active: 50.1 µM,

# Part of the list above, with bars between the fields.
Structure (SMILES) | Potency | activity change, negative = inhibition
COc1ccc(N2CC3CCC(C2)N3CC2CCCC2)cc1 | inconclusive: 10 µM [inhibitor, full curve] | 
COc1ccc(-n2nc(C3CCCN(C(=O)C4CC4)C3)[nH]c2=O)cc1 (configuration not stated) | active: 17.8 µM | 
O=C(c1cc(-c2cccs2)[nH]n1)N1CCN(c2ccccn2)CC1 | inactive | 
CCCC(=O)Nc1sc(C)c(C)c1C#N | inactive | 
COc1ccccc1C1CC(c2ccc(NS(C)(=O)=O)cc2)=NN1C(=O)c1ccccc1 (configuration not stated) | inactive | 
O=S(=O)(Nc1ccccn1)c1ccc(Oc2ccccc2)cc1 | inconclusive: 56.2 µM [inhibitor, partial curve, poor fit] | 
Cc1cc(C)cc(NS(=O)(=O)c2ccc3c(c2)-c2oncc2CO3)c1 | inconclusive: 39.8 µM [inhibitor, partial curve, poor fit] | 
CS(=O)(=O)Oc1ccc(Br)cc1/C=C1/N=C(c2ccco2)OC1=O | inconclusive: 79.4 µM [inhibitor, partial curve, poor fit] | 
CCN(C(=O)c1sc(N)c(C#N)c1C)C1CCCCC1 | inconclusive: 141 µM [inhibitor, partial curve, poor fit] | 
CCN(CC)C(=O)c1[nH]cnc1C(=O)N[C@@H](CC(C)C)C(=O)OC(C)(C)C | inconclusive: 28.2 µM [inhibitor, single point] | 
CN(C)c1ccc(C=NNC(=S)Nc2ccc(F)cc2)cc1 | inconclusive: 70.8 µM [inhibitor, partial curve, poor fit] | 
O=C(Oc1ccc(C(=S)N2CCOCC2)cc1)c1cccc(Cl)c1 | inactive | 
Cc1cc(C(=O)OCCN2C(=O)c3ccccc3C2=O)c2ccccc2n1 | inactive | 
C[C@H](CO)N1C[C@H](C)[C@@H](CN(C)Cc2ccc(Oc3ccccc3)cc2)Oc2c(NC(=O)C3CC3)cccc2C1=O | inconclusive: 2.24 µM [inhibitor, single point] | 
Cc1ccc(OCC(=O)NNC(=O)CCc2ccccc2)cc1 | inactive | 
CCOC(=O)c1cc2c(C)n(-c3ccc(C)cc3)c(C)c2ccc1=O | inconclusive: 79.4 µM [inhibitor, partial curve, poor fit] | 
